Experimental data published in article PMC5895073, “Cell polarity protein Spa2 coordinates Chs2 incorporation at the division site in budding yeast” (PLoS Genetics, 2018).
These are yes or no findings as the source states them, for the method shown. A result given as binding can be weak or reduced; the word gives no strength.

The chains behind the UniProt entries cited, without tags or fusion partners. Residues count along the entry.
UniProt P23201, residues 1-145: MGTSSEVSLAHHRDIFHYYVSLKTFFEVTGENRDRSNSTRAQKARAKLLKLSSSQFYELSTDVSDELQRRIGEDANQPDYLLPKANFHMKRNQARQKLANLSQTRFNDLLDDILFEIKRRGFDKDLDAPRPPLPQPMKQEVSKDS

How the values were obtained:
[1] = molecular target: Spa2-1-145 (S. cerevisiae) (UniProt P23201); test: two-hybrid; vectors pGADT7 and pGBKT7; growth at 30°C on SC medium lacking leucine, tryptophan and histidine (selective), 3-4 days
[2] = molecular target: Spa2 SHD-V domain fragment (S. cerevisiae); test: as above

binding [1]	binding [2]	Molecule
binds		F-BAR domain of Hof1 (two-hybrid fragment) (from UniProt Q05080) (domain or fragment)
	binds	Chs2-215-629 (two-hybrid) (domain or fragment, UniProt P14180 215-629) ANSESKRRMVSDLPPPSKKKALLKLDNPIPKGLLDTLPRRNSPEFTEMRYTACTVEPDDFLREGYTLRFAEMNRECQIAICITMYNEDKYSLARTIHSIMKNVAHLCKREKSHVWGPNGWKKVSVILISDGRAKVNQGSLDYLAALGVYQEDMAKASVNGDPVKAHIFELTTQVSINADLDYVSKDIVPVQLVFCLKEENKKKINSHRWLFNAFCPVLQPTVVTLVDVGTRLNNTAIYRLWKVFDMDSNVAGAAGQIKTMKGKWGLKLFNPLVASQNFEYKISNILDKPLESVFGYISVLPGALSAYRYRALKNHEDGTGPLRSYFLGETQEGRDHDVFTANMYLAEDRILCWELVAKRDAKWVLKYVKEATGETDVPEDVSEFISQRRRWLNGAMFAAIYAQLHFYQIWKTKHS
	binds	Hof1 (two-hybrid construct of Fig 5E) (protein, UniProt Q05080 1-669) MSYSYEACFWDPNDNGVNILLGHISQGIRSCDSMILFFKQRSELEKDYARRLGAITGKLDKDIGTNMDYGKLNETFNVVLSVEKARAQSHSKQSEILFRQIYTDTKAFAANLQARYTTLSGKIERLRMDKFNKKKGCEVLQKKLQDAQIRFRDLQLNENNMIGAKRVEHNKRELLKWESNSQEYKVQLDVLKQEYKASQKFWIHEWAQLSCELQEMENARISFLQSKLQQFATSSMETYILEQTKMDMLTNHLNSFTAADEISTFSKENGTGRLKHKTSKGDMNSSANWAQMSSISTTSKKTESYMDNIRKLSSQLKETENKRKLASIDKYEKPLPSPEVTMATQFRNSTPVIRNETKVVANPTLSLRSSPVQLQSNVDDSVLRQKPDKPRPIVGEEQLKPDEDSKNPDEKGLMVHKRNQSLSSPSESSSSNPTDFSHIKKRQSMESMTTSVSSMANSIDDSQRFAKSWNSSNRKRKSMSHLQVPSSASSRSDDGGRTPNSAHNLNEDDYNTRRDTSTSTILFKPPVAVRGTSRGHTHRQSMIMQDSSNPIEDALYEMERIQSSSKPGTKTGNIMDERGVVRDRGITVTLPIVTSEGFPVIEYAKAMYPLIGNEAPGLANFHKGDYLLITEIVNKDWYKGEVYDNDRIDRNHRIGLIPYNFIQLLHQGL
